PubChem BioAssay AID504834 (National Center for Advancing Translational Sciences (NCATS), 2011)
Screen size: about 320,000 compounds; about 22,000 (6.9%) were called active. Inconclusive means that the source gave no clear call. Such entries were picked first, then a sample of the others. Calls follow the shape of the dose curve; as a rule, active = well fitted inhibition curve with a large enough effect; inconclusive = small, poorly fitted or top-dose-only effect, or another doubt; inactive = no such curve, though single readings can be large or run the other way. A potency beside an inconclusive call is a rough fit, not a confirmed value.

Test: Primary qHTS for delayed death inhibitors of the malarial parasite plastid, 96 hour incubation
Settings: P. falciparum luciferase reporter growth; series mostly up to 28.7 µM; activity change, negative = inhibition: at the top concentration
Method in brief: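 Erythrocytes infected with luciferase-expressing P. falciparum were dispensed at 2% hematocrit and 0.05% parasitemia (final), then incubated with compounds 96 hours at 37 C in 5% CO2. Luminescence after detection reagent addition reported growth.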
% is scaled to controls: 0 for no effect and ±100 for the full control effect; potency is read from the fitted curve at half-maximal effect.

Row | SMILES | Potency | activity change, negative = inhibition
1 | COc1ccc(C(=O)N(C)c2ccccc2C(=O)NCCc2ccccc2)cc1 | inconclusive: 18.5 µM [inhibitor, single point] | –
2 | COc1cc(Cl)c(C)cc1NC(=O)CN1CCCCCC1 | – | inactive: 7.08%
3 | CC(=O)Nc1ccc(S(=O)(=O)N2c3ccccc3C(C)=CC2(C)C)cc1 | – | inactive: -26.2%
4 | COc1ccc(C(CC(=O)NC(C)c2ccc(-c3ccccc3)cc2)NC(C)=O)cc1 (configuration not stated) | – | inactive: 1.05%
5 | CCc1ccc(C(=O)CN2C(=O)NC3(CCOc4ccccc43)C2=O)s1 (configuration not stated) | inconclusive: 13.1 µM [inhibitor, single point] | –
6 | C(#CC12CC3CC(CC(C3)C1)C2)CN1CCOCC1 | inconclusive: 18.5 µM [inhibitor, single point] | –
7 | CCN(CC)CCn1c(=S)[nH]c2cc(C(=O)N3CC=C(c4ccccc4)CC3)ccc2c1=O | inconclusive: 13.1 µM [inhibitor, single point] | –
8 | COc1ccc(CCC(=O)N2CCN(C3CCCCC3)CC2)cc1 | – | inactive: 23.8%
9 | O=S(=O)(NC[C@@H]1CCC[C@H](CNS(=O)(=O)c2c(F)cccc2F)C1)c1ccc2c(c1)OCCO2 | inconclusive: 10.4 µM [inhibitor, single point] | –
10 | COC(=O)C(CCSC)NC(=O)CNC(=O)C1CCCCC1 (configuration not stated) | inconclusive: 4.15 µM [inhibitor, partial curve, poor fit] | –
11 | CCCN1C(=O)C(O)(c2c(C)[nH]c3ccccc23)c2ccccc21 (configuration not stated) | – | inactive: 8.43%
12 | COC(=O)c1cc(OC)ccc1-c1ccc(OC)cc1 | inconclusive: 0.0029 µM [inhibitor, full curve, poor fit] | –
13 | CCc1cc(C(=O)N2CCCC(C(=O)c3ccc(C(F)(F)F)cc3)C2)n(C)n1 (configuration not stated) | – | inactive: -5.85%
14 | COc1cc(F)ccc1S(=O)(=O)N1CCN(c2ccccc2)CC1 | inconclusive: 2.08 µM [inhibitor, single point] | –
15 | CS(=O)(=O)c1cccc(NC(=O)c2ccc(Cl)c(Cl)c2)c1 | inconclusive: 4.65 µM [inhibitor, partial curve, poor fit] | –
16 | O=S1(=O)CC(O)C(Nc2ccccc2Cl)C1 (configuration not stated) | inconclusive: 18.5 µM [inhibitor, single point] | –
17 | CC(=O)NC12CC3CC(C1)CC(C(=O)OCC(=O)Nc1c(F)cccc1F)(C3)C2 | active: 6.57 µM | –
18 | COc1ccc(OCC(=O)OC(C)CN2CCCCC2)cc1 (configuration not stated) | – | inactive: 3.01%
19 | COc1ccc(NC2CCCN(C(=O)CCN3Cc4ccccc4C3=O)C2)cc1 (configuration not stated) | active: 8.28 µM | –
20 | COc1ccc(NS(=O)(=O)c2cn(C)cn2)cc1Cl | inconclusive: 18.5 µM [inhibitor, single point] | –
21 | CCCn1c(N)c(C(=O)CSc2nnc(C)n2Cc2ccccc2)c(=O)n(C)c1=O | inconclusive: 18.5 µM [inhibitor, single point] | –
22 | CCOc1cccc(CN2CCN(CCc3ccccc3)C(CCO)C2)c1O (configuration not stated) | – | inactive: 16.6%
23 | O=C(/C=C/c1ccccc1)N(Cc1ccc(Cl)cc1)C1CCS(=O)(=O)C1 (configuration not stated) | inconclusive: 11.7 µM [inhibitor, single point] | –
24 | O=C(OCC(=O)N1CCN(C(=O)c2ccco2)CC1)c1ccccc1OCc1ccccc1 | active: 11.7 µM | –

Row | SMILES | Potency | activity change, negative = inhibition
25 | CSc1ccccc1OCc1cc(C(=O)N2CCN(c3ncccn3)CC2)no1 | inconclusive: 5.22 µM [inhibitor, partial curve, poor fit] | –
26 | COc1ccc(N2C(=O)CC(c3ccc(OC(C)C)cc3)C2=O)cc1 (configuration not stated) | active: 7.38 µM | –
27 | COc1ccc(/C=C2\CN(Cc3ccccc3)C/C(=C\c3ccc(OC)c(O)c3)C2=O)cc1O | active: 3.7 µM | –
28 | OC1(c2cccc(C(F)(F)F)c2)CCN(c2ncnc3c2[nH]c2ccc(F)cc23)CC1 | – | inactive: 21.5%
29 | Cc1cc(C(F)F)nn1CC(=O)NCc1ccc(Cl)cc1Cl | – | inactive: -7.45%
30 | COc1ccc(CN(C)C(C)C(=O)Nc2cccc3ccccc23)cc1 (configuration not stated) | inconclusive: 18.5 µM [inhibitor, single point] | –
31 | COc1ccccc1NC(=S)NCCSc1ccc(C)cc1 | inconclusive: 10.4 µM [inhibitor, single point] | –
32 | O=C(CCCSc1nc2ccccc2[nH]1)NCc1ccccc1Cl | inconclusive: 18.5 µM [inhibitor, single point] | –
33 | CCOC(=O)CCc1c(C(=O)OCC)[nH]c(CC)c1C(=O)OCc1ccccc1 | inconclusive: 7.38 µM [inhibitor, single point] | –
34 | COc1ccc(CN(C(=O)c2nsc(Cl)c2Cl)C(C(=O)NC2CCCC2)c2ccc(C)cc2)cc1 (configuration not stated) | active: 10.4 µM | –
35 | O=C(CSc1ccc(-c2ccco2)nn1)NC1CCCC1 | – | inactive: 12.9%
36 | COc1ccc(-n2cc(-c3ccccc3)[n+]3c2CCCCC3)cc1 | active: 0.928 µM | –
37 | Cc1ccc(Cn2ccc(NC(=O)c3nn(C)cc3Cl)n2)cc1 | – | inactive: 182%
38 | COc1ccc(NC(=O)CC2SC(N3CCCCC3)=NC2=O)cc1OC (configuration not stated) | inconclusive: 8.28 µM [inhibitor, partial curve, poor fit] | –
39 | O=S(=O)(O)c1cc(O)c2c(O)c(N=Nc3cc(Cl)ccc3O)c(S(=O)(=O)O)cc2c1 | – | inactive: 2.33%
40 | Clc1ccc2nc(CSc3nc4ccccc4o3)cn2c1 | inconclusive: 7.38 µM [inhibitor, partial curve, poor fit] | –
41 | CCOC(=O)c1cc(NC(=O)N(C(C)C)C(C)C)c(C)nc1C | inconclusive: 16.5 µM [inhibitor, single point] | –
42 | Cc1cccc([C@@H]2C[C@H]3CN(Cc4cccc(Cl)c4)C(=O)[C@]34CCCN24)n1 | inconclusive: 20.8 µM [inhibitor, single point] | –
43 | CC(C)N(C(=O)COC(=O)c1cccc(N(C)C)c1)c1ccccc1 | inconclusive: 11.7 µM [inhibitor, single point] | –
44 | COc1ccc(C2C(C#N)=C(N)Oc3n[nH]c(C)c32)cc1CN1CCN(c2ccc(F)cc2)CC1 (configuration not stated) | inconclusive: 0.0657 µM [inhibitor, full curve, poor fit] | –
45 | CCN(CC)CCN(C(=O)c1ccc(Br)s1)c1nc2cc3c(cc2s1)OCCO3 | – | inactive: 32.5%
46 | CC(C)(C)c1ccc(C(=O)CCC(=O)NCc2ccccc2)cc1 | inconclusive: 18.5 µM [inhibitor, single point] | –
47 | COc1ccccc1N1CCN(Cc2cnc3ccc(Cl)cn23)CC1 | inconclusive: 2.33 µM [inhibitor, partial curve, poor fit] | –
48 | c1ccc(-c2nc(-n3ccnc3)nc(-n3ccnc3)n2)cc1 | active: 2.33 µM | –

As entered above.
Under Potency, `CCOC(=O)CCc1c(C(=O)OCC)[nH]c(CC)c1C(=O)OCc1ccccc1` is entered as inconclusive: 7.38 µM [inhibitor, single point]
Under Potency, `O=C(CCCSc1nc2ccccc2[nH]1)NCc1ccccc1Cl` is entered as inconclusive: 18.5 µM [inhibitor, single point]
Under Potency, `COc1ccc(C2C(C#N)=C(N)Oc3n[nH]c(C)c32)cc1CN1CCN(c2ccc(F)cc2)CC1` (configuration not stated) is entered as inconclusive: 0.0657 µM [inhibitor, full curve, poor fit]
Under Potency, `COc1ccc(CN(C(=O)c2nsc(Cl)c2Cl)C(C(=O)NC2CCCC2)c2ccc(C)cc2)cc1` (configuration not stated) is entered as active: 10.4 µM
Under Potency, `CCOC(=O)c1cc(NC(=O)N(C(C)C)C(C)C)c(C)nc1C` is entered as inconclusive: 16.5 µM [inhibitor, single point]
Under Potency, `CSc1ccccc1OCc1cc(C(=O)N2CCN(c3ncccn3)CC2)no1` is entered as inconclusive: 5.22 µM [inhibitor, partial curve, poor fit]

Additional entries follow.

Row | SMILES | Potency | activity change, negative = inhibition
49 | Cc1ccc(-c2nnn(CC(=O)N(CC(=O)NC3CCCC3)c3cnc4ccccc4c3)n2)o1 | active: 9.28 µM | –
50 | CCn1cc(C2=NC(C)CO2)c2ccccc21 (configuration not stated) | – | inactive: 28.4%
51 | O=C(NCCc1ccc(F)cc1)C(=O)NCC1CCCN1S(=O)(=O)c1cccs1 (configuration not stated) | inconclusive: 10.4 µM [inhibitor, partial curve] | –
52 | CCN1CCN(S(=O)(=O)c2ccc(Cl)c(C(=O)Nc3ccccc3N3CCCC3)c2)CC1 | inconclusive: 10.4 µM [inhibitor, single point] | –
53 | COC(=O)/C=C/c1c(C)nc(NCc2ccccc2)nc1Cl | – | inactive: -14.5%
54 | CCCCCn1nnc2c(=O)oc3ccccc3c21 | – | inactive: 12.4%
55 | CC(C)(CO)[C@@H](O)C(=O)NCCC(=O)NCCSSCCNC(=O)CCNC(=O)[C@H](O)C(C)(C)CO | – | inactive: 14.3%
56 | O=C(Nc1ccc(F)cc1)C(Sc1nc2ccccc2[nH]1)c1ccccc1 (configuration not stated) | inconclusive: 18.5 µM [inhibitor, partial curve, poor fit] | –
57 | CN1C2C=C3C(C#N)=C(N)C(C#N)(C#N)C(c4ccc(Br)cc4)C3C1CC2 (configuration not stated) | active: 8.28 µM | –
58 | COc1ccc(NC(=O)C#Cc2ccccc2)cc1 | inconclusive: 10.4 µM [inhibitor, single point] | –
59 | CCN1CCN(C(=O)C2CCCN(c3ncnc4c3nc3n4CCCCC3)C2)CC1 (configuration not stated) | active: 10.4 µM | –
60 | CN(c1ccccc1)S(=O)(=O)c1cccc(C(=O)NC2CCCCC2)c1 | inconclusive: 10.4 µM [inhibitor, single point] | –
61 | O=C(O)c1cccc(NC(=O)c2ccc(N3C(=O)c4ccc(C(=O)Nc5cccc(C(=O)O)c5)cc4C3=O)cc2)c1 | – | inactive: 34.8%
62 | Cc1cccc(NCC(=O)NNC(=S)Nc2ccccc2)c1 | inconclusive: 1.04 µM [inhibitor, partial curve, poor fit] | –
63 | Cc1nc(C)c(C(=O)Nc2cccc(F)c2)s1 | – | inactive: 48.6%
64 | CCO[C@H]1OC(C(=O)N2CCN(Cc3ccc4c(c3)OCO4)CC2)=C[C@@H](C2CC2)[C@@H]1CCCO | active: 7.38 µM | –
65 | COc1cc(/C=C\C(=O)Nc2cc(=O)n(C)c(=O)n2C)cc(OC)c1OC | inconclusive: 8.28 µM [inhibitor, partial curve, poor fit] | –
66 | CCc1ccc(NC(=O)N(C2CCCCC2)C(C)c2cccnc2)cc1 (configuration not stated) | – | inactive: 42.9%
67 | CCN1CCN(CC(=O)Nc2cccc(C)c2C)C(=O)C1=O | inconclusive: 0.0033 µM [inhibitor, full curve, poor fit] | –
68 | Cc1[nH]n(-c2ccccc2)c(=O)c1CCOC(=O)c1cccc(C(F)(F)F)c1 | inconclusive: 18.5 µM [inhibitor, single point] | –
69 | CCCOc1cccc(C(=O)N/N=C/c2coc3ccccc3c2=O)c1 | active: 13.1 µM | –
70 | O=C(NCCc1cccc(F)c1)C1CCN(S(=O)(=O)c2ccc(F)cc2)CC1 | inconclusive: 7.38 µM [inhibitor, partial curve, poor fit] | –
71 | CCCn1c(C)nc2cc(Cl)c(N3CCN(c4nc(-c5ccc(C)cc5)cs4)CC3)cc21 | active: 5.22 µM | –
72 | Cc1ccc(C(=S)N2CCCCCC2)cc1 | inconclusive: 9.28 µM [inhibitor, partial curve] | –
